# Laboratory results: PubChem BioAssay AID1347075 (National Center for Advancing Translational Sciences (NCATS), 2019)
# About 5,500 (1.4%) of roughly 400,000 compounds were called active. Inconclusive means that the source gave no clear call. Such entries were picked first, then a sample of the others. Calls follow the shape of the dose curve; as a rule, active = well fitted cell-killing curve with a large enough effect; inconclusive = small, poorly fitted or top-dose-only effect, or effect the other way; inactive = flat fitted curve, though single readings scatter. A potency beside an inconclusive call is a rough fit, not a confirmed value.
# Test: qHTS assay for MDR1-selective chemotherapeutics: Primary screen using the parental adenocarcinoma cell KB-3-1; also: nearly all actives have a fitted effect of over 60% in size
# Conditions: KB-3-1 viability, CellTiter-Glo ATP luminescence, 72 h; activity change, negative = cytotoxic: at 46.1 µM (top of the series)
# In short: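 Luminescent ATP read-out (CellTiter-Glo) measures survival of drug-naive KB-3-1 cells after 72 h compound exposure at 37 °C. Titration series was screened from lowest to highest concentration, with DMSO vehicle plates as background controls.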
# % is scaled to controls: 0 for no effect and ±100 for the full control effect; potency is read from the fitted curve at half-maximal effect.
SMILES,Potency,"activity change, negative = cytotoxic"
CCOC(=O)C1=CCN(S(=O)(=O)c2ccccc2Br)C1c1ccc(Cl)c(Cl)c1 (stereo unspecified),"inconclusive: 18.4 µM [cytotoxic, single point]",
CCC(C)n1c(SCc2ccccc2)nc2ccsc2c1=O (stereo unspecified),"inconclusive: 29.1 µM [cytotoxic, single point]",
Cc1cc(NC(=O)c2cc(C(C)C)on2)nn1Cc1ccc(Cl)cc1,"inconclusive: 25.9 µM [cytotoxic, single point]",
CC(=O)N1CCOc2ccc(S(=O)(=O)N3C(C)CCCC3C)cc21 (stereo unspecified),"inconclusive: 29.1 µM [rising, single point]",
CCOc1ccc(N(CC(=O)Nc2ccccc2Cl)S(C)(=O)=O)cc1,"inconclusive: 3.26 µM [cytotoxic, full curve]",
Nc1c(C(=O)c2ccccc2)oc2ccc([N+](=O)[O-])cc12,"inconclusive: 29.1 µM [cytotoxic, single point]",
O=C(NC1CCCCC1)C(c1ccccc1)n1c(=O)c(-c2cc3ccccc3[nH]2)nc2ccccc21 (stereo unspecified),,inconclusive: -54.8%
CCCOc1ncnc2c1[nH]c1ccccc12,"inconclusive: 20.6 µM [cytotoxic, partial curve, poor fit]",
COc1ccc2c(C)cc(SCC(=O)Nc3ccc(Cl)cn3)nc2c1,"inconclusive: 29.1 µM [cytotoxic, single point]",
Cc1cccc(CCNC(=O)c2cc3c(s2)-c2c(C)cccc2OC3)c1,,inactive: 2.57%
COc1ccc(CNC(=O)c2ccc(-c3nc(CSc4ccc(C)cc4)c(C)o3)cc2)c(OC)c1,,inactive: -7.85%
O=C(CCn1c(=S)oc2ccccc21)NC1CCCCCC1,,inactive: -4.26%
CC(C)c1ccc(NC(=O)CN2C(=O)NC(Cc3c[nH]c4ccccc34)C2=O)cc1 (stereo unspecified),,inactive: -5.09%
CC(=O)Nc1cc(-c2ccc(S(C)(=O)=O)cc2)cn2c(-c3ccc(F)cc3)cnc12,,inactive: -5%
COc1ccccc1CCC(=O)N(C)CC(=O)Nc1ccc(Cl)c(C(F)(F)F)c1,"inconclusive: 16.4 µM [cytotoxic, single point]",
O=C(N1CCN(c2ccccc2F)CC1)C1(S(=O)(=O)c2ccc(Cl)cc2)CC1,"inconclusive: 0.58 µM [cytotoxic, partial curve]",
O=C(Nc1ccc(OC(F)(F)F)cc1)Nc1cccc([N+](=O)[O-])c1,active: 11.6 µM,
Cc1cccc(Nc2nc(N)c([N+](=O)[O-])c(N3CCCC(C)C3)n2)c1 (stereo unspecified),"inconclusive: 29.1 µM [cytotoxic, single point]",
COc1ccc(-c2nc(C#N)c(NCc3cccnc3)o2)cc1OC,"inconclusive: 6.51 µM [rising, full curve, poor fit]",
Cc1ccc(Nc2nc(Cl)c(C=O)s2)cc1Cl,"inconclusive: 29.1 µM [cytotoxic, single point]",
O=C(Nc1ccc2c(c1)OCCO2)c1cc2ccccc2o1,,inactive: -24.8%
Cc1cccc(C)c1NC(=O)CNC(=O)c1ccc(NS(=O)(=O)c2ccc3[nH]c(=O)[nH]c3c2)cc1,,inactive: -3.11%
CCc1ccc(/C=C/C(=O)c2c(C)cc(C)[nH]c2=O)cc1,active: 23.1 µM,
COc1ccc(CNC(=O)c2sc(=O)n(Cc3ccccc3OC)c2C)cc1,"inconclusive: 23.1 µM [cytotoxic, partial curve, poor fit]",

# An excerpt from above in order of formula weight, rising.
SMILES,Potency,"activity change, negative = cytotoxic"
CCCOc1ncnc2c1[nH]c1ccccc12,"inconclusive: 20.6 µM [cytotoxic, partial curve, poor fit]",
CCc1ccc(/C=C/C(=O)c2c(C)cc(C)[nH]c2=O)cc1,active: 23.1 µM,
Nc1c(C(=O)c2ccccc2)oc2ccc([N+](=O)[O-])cc12,"inconclusive: 29.1 µM [cytotoxic, single point]",
Cc1ccc(Nc2nc(Cl)c(C=O)s2)cc1Cl,"inconclusive: 29.1 µM [cytotoxic, single point]",
O=C(Nc1ccc2c(c1)OCCO2)c1cc2ccccc2o1,,inactive: -24.8%
O=C(CCn1c(=S)oc2ccccc21)NC1CCCCCC1,,inactive: -4.26%
CCC(C)n1c(SCc2ccccc2)nc2ccsc2c1=O (stereo unspecified),"inconclusive: 29.1 µM [cytotoxic, single point]",
COc1ccc(-c2nc(C#N)c(NCc3cccnc3)o2)cc1OC,"inconclusive: 6.51 µM [rising, full curve, poor fit]",
Cc1cccc(Nc2nc(N)c([N+](=O)[O-])c(N3CCCC(C)C3)n2)c1 (stereo unspecified),"inconclusive: 29.1 µM [cytotoxic, single point]",
CC(=O)N1CCOc2ccc(S(=O)(=O)N3C(C)CCCC3C)cc21 (stereo unspecified),"inconclusive: 29.1 µM [rising, single point]",
Cc1cc(NC(=O)c2cc(C(C)C)on2)nn1Cc1ccc(Cl)cc1,"inconclusive: 25.9 µM [cytotoxic, single point]",
Cc1cccc(CCNC(=O)c2cc3c(s2)-c2c(C)cccc2OC3)c1,,inactive: 2.57%
COc1ccc2c(C)cc(SCC(=O)Nc3ccc(Cl)cn3)nc2c1,"inconclusive: 29.1 µM [cytotoxic, single point]",
COc1ccc(CNC(=O)c2sc(=O)n(Cc3ccccc3OC)c2C)cc1,"inconclusive: 23.1 µM [cytotoxic, partial curve, poor fit]",
CC(C)c1ccc(NC(=O)CN2C(=O)NC(Cc3c[nH]c4ccccc34)C2=O)cc1 (stereo unspecified),,inactive: -5.09%
CC(=O)Nc1cc(-c2ccc(S(C)(=O)=O)cc2)cn2c(-c3ccc(F)cc3)cnc12,,inactive: -5%
COc1ccccc1CCC(=O)N(C)CC(=O)Nc1ccc(Cl)c(C(F)(F)F)c1,"inconclusive: 16.4 µM [cytotoxic, single point]",
O=C(NC1CCCCC1)C(c1ccccc1)n1c(=O)c(-c2cc3ccccc3[nH]2)nc2ccccc21 (stereo unspecified),,inconclusive: -54.8%
COc1ccc(CNC(=O)c2ccc(-c3nc(CSc4ccc(C)cc4)c(C)o3)cc2)c(OC)c1,,inactive: -7.85%
Cc1cccc(C)c1NC(=O)CNC(=O)c1ccc(NS(=O)(=O)c2ccc3[nH]c(=O)[nH]c3c2)cc1,,inactive: -3.11%
CCOC(=O)C1=CCN(S(=O)(=O)c2ccccc2Br)C1c1ccc(Cl)c(Cl)c1 (stereo unspecified),"inconclusive: 18.4 µM [cytotoxic, single point]",

# (listing goes on)

SMILES,Potency,"activity change, negative = cytotoxic"
COc1ccc(NC(=O)c2nc(S(=O)(=O)Cc3cccc(C)c3)ncc2Cl)c(OC)c1,,inactive: -2.27%
CC(=O)N1CCN(c2ccc(NCc3ccc(-c4ccc(Br)cc4)o3)cc2)CC1,active: 9.2 µM,
CC(=O)c1c(C)[nH]c(C(=O)OCC(=O)Nc2ccc(Cl)c(S(=O)(=O)N(C)C)c2)c1C,"inconclusive: 7.31 µM [cytotoxic, partial curve]",
CN1CCN(c2cc(-c3cccc(C(=O)O)c3)nc3ccnn23)CC1,,inactive: 0%
CCOC(=O)c1cc([N+](=O)[O-])c([N+](=O)[O-])cc1NC(C)=O,"inconclusive: 29.1 µM [cytotoxic, single point]",
CCOC(=O)C1CCN(C(c2ccccn2)c2c(C)[nH]c3ccccc23)CC1 (stereo unspecified),active: 18.4 µM,
CCc1ccc(NC(=O)CN2C(=O)CSc3ccc(S(=O)(=O)N(C)C)cc32)cc1,,inactive: -0.351%
CCn1c(SCCC(C)C)nnc1-c1c[nH]c2ccccc12,"inconclusive: 23.1 µM [cytotoxic, single point]",
CC1CC(=O)N(CC(=O)Nc2ccc3c(c2)OCO3)c2ccccc2S1 (stereo unspecified),"inconclusive: 20.6 µM [rising, single point]",
COc1ccc(-c2sc3ccccc3c2-c2ccc(OCCN(C)C)cc2)cc1,"inconclusive: 29.1 µM [cytotoxic, single point]",
O=C(COc1ccc2ccc(=O)oc2c1)NCCN1CCOCC1,"inconclusive: 29.1 µM [cytotoxic, single point]",
COc1ccc(C2C(Oc3ccccc3C)C(=O)N2Cc2ccc(F)cc2)cc1OC (stereo unspecified),"inconclusive: 14.6 µM [cytotoxic, single point]",
CCOc1ccc(NC(=O)CSC(N)=O)cc1,"inconclusive: 29.1 µM [cytotoxic, single point]",
Cc1ccc2nc3sc(C(=O)N4CCCc5ccccc54)c(N)c3cc2c1,"inconclusive: 20.6 µM [cytotoxic, single point]",
CCCc1ccc(OCC(=O)NNC(=O)c2cccnc2)cc1,,inactive: -3.26%
COc1cc(C(=O)Nc2ccc3ccccc3c2)cc(OC)c1OC,"inconclusive: 2.31 µM [cytotoxic, partial curve, poor fit]",
Cc1nn(-c2ccccc2)c(Cl)c1/C=N/NC(N)=O,"inconclusive: 5.8 µM [cytotoxic, full curve, poor fit]",
Cc1ccc(C2N(C)C(=O)c3ccccc3N2C)cc1 (stereo unspecified),"inconclusive: 25.9 µM [cytotoxic, single point]",
C[C@@H]1CN([C@@H](C)CO)S(=O)(=O)c2ccc(Br)cc2O[C@H]1CN(C)C(=O)C1CCOCC1,,inactive: 11.9%
CCc1ccc(NCc2cc3ccc(OC)cc3n(CC(=O)Nc3c(C)cc(C)cc3C)c2=O)cc1,,inactive: 0.116%
O=C(c1ccccc1)c1c2c(cc3sc4ccccc4[n+]13)-c1cccc3cccc-2c13,active: 20.6 µM,
Oc1ccccc1CNCC12CC3CC(CC(C3)C1)C2,,inactive: -17.9%
Cc1cccn2cc(CCNC(=O)c3ccco3)nc12,"inconclusive: 16.4 µM [rising, single point]",
COc1ccc(-c2csc(-c3ccc(O)cc3)n2)cc1,active: 4.11 µM,

SMILES,Potency,"activity change, negative = cytotoxic"
O=C(/C=C/c1ccco1)NC(=S)Nc1ccc(O)c(-c2nc3ccccc3s2)c1,active: 5.8 µM,
Cc1ccccc1CNC(=O)CCS(=O)(=O)c1cc2c3c(c1)CCN3C(=O)CC2,,inactive: 9.45%
CN1C(=O)/C(=C\c2ccco2)N=C1c1ccc(Cl)cc1Cl,,inactive: 2%
Cc1ccc(Nc2sc(C(=O)c3ccccc3)c(N)c2S(=O)(=O)c2ccccc2)cc1Cl,,inactive: -26.3%
Cc1ccccc1Cn1nnc(-c2ccc(F)cc2)n1,,inactive: 2.05%
Cc1noc(C)c1CCC(=O)NC1CCCN(Cc2ccc(CC(C)C)cc2)C1 (stereo unspecified),"inconclusive: 6.51 µM [cytotoxic, full curve, poor fit]",
CCOc1ccc(N(CC(=O)Nc2cccc(Cl)c2)S(=O)(=O)c2c(C)noc2C)cc1,"inconclusive: 20.6 µM [cytotoxic, single point]",
CC(=O)C(=Cc1ccccc1)c1ccccc1,,inactive: 16.2%
O=C(Nc1ccc(Cl)c(Cl)c1)N[C@@H]1CC[C@@H](CCn2cc(C3CCCCC3)nn2)O[C@@H]1CO,"inconclusive: 18.4 µM [cytotoxic, partial curve]",
COc1cc(C(C)=O)ccc1OC(=O)c1cc2cccc(OC)c2oc1=O,,inactive: 3.71%
CCn1c(SCc2ccc(C#N)cc2)nnc1-c1ccc(S(=O)(=O)N2CCCCC2)cc1,"inconclusive: 18.4 µM [cytotoxic, single point]",
O=c1[nH]c2cc([N+](=O)[O-])ccc2c2ccc([N+](=O)[O-])cc12,,inactive: 4.69%
COC(=O)c1cnc(Oc2ccc(NC(=O)NC(=O)c3c(OC)cccc3OC)cc2)cc1C(F)(F)F,"inconclusive: 2.06 µM [cytotoxic, full curve, poor fit]",
CCOC1(OCC)N=C(N)C2(C#N)C(c3ccc(NC(C)=O)cc3)C12C#N (stereo unspecified),"inconclusive: 29.1 µM [rising, single point]",
COc1ccc(CCN2C(=O)CSC2c2ccc(OC)c(OC)c2)cc1OC (stereo unspecified),,inactive: -45%
Cc1ccc(-n2nnnc2Sc2nc([N+](=O)[O-])nn2C)cc1C,"inconclusive: 29.1 µM [cytotoxic, single point]",
CCN(CC)S(=O)(=O)c1ccc(Cc2ncc(C(F)(F)F)cc2Cl)s1,"inconclusive: 23.1 µM [cytotoxic, single point]",
Fc1ccc(C(c2nnnn2Cc2cccs2)N2CCN(c3ccccc3)CC2)cc1 (stereo unspecified),,inactive: -14.7%
COc1ccc(N2CCN(CCS(=O)(=O)c3cc(Cl)ccc3Cl)CC2)cc1,,inactive: 4.8%
CCO[C@H]1OC(C(=O)N2CCN(Cc3ccc4c(c3)OCO4)CC2)=C[C@@H](c2cn(C(C)=O)c3ccccc23)[C@@H]1CCCO,"inconclusive: 29.1 µM [cytotoxic, single point]",
CN(Cc1ccccc1)c1ccc(/C=C/c2sc3ccccc3[n+]2C)cc1,"inconclusive: 0.461 µM [cytotoxic, full curve, poor fit]",
CCCOc1cccc(-c2cc(C(=O)NN)c3ccccc3n2)c1,"inconclusive: 25.9 µM [cytotoxic, single point]",
CC(=O)c1ccc(CCCc2ccc(C(C)=O)cc2)cc1,"inconclusive: 23.1 µM [rising, single point]",
